Experimental data reported in patent publication US20120010148A1, “COMBINATION THERAPIES USING NAP” (ALLON THERAPEUTICS INC., priority 2008, published 2012).
“Also recorded” adds a separate entry of the source. At least one structure is not confirmed: it was looked up by name or label, or the drawing left a doubt.

How the values were obtained:
STOP+/− mice [1] = assay: Open field locomotor activity; type: in vivo, mouse; conditions: for open field activity: Example 4, STOP+/− mice, NAP intranasal 0.5 microgram/mouse/day, clozapine injection 3 mg/kg/day, FIG. 11, 3 mg/kg/day
Procedure: (§1) The NAP vehicle solution (termed DD), included the following ingredients (per milliliter): 7.5 mg of NaCl, 1.7 mg of citric acid monohydrate, 3 mg of disodium phosphate dihydrate, and 0.2 mg of benzalkonium chloride solution (50%) (Alcalay R N et al., Neurosci Lett, 361(1-3): 128-131 (2004)). NAP or vehicle solution (DD) was administered to mice hand-held in a semisupine position with nostrils facing the investigator. A pipette tip was used to administer 2.5 μl/nostril. The mouse was hand-held until the solution was totally absorbed (10 s). […] STOP+/− male mice (5 months old, n=4) received daily doses of 10 mg/kg intraperitoneal injection (IP) of clozapine (5 days a week), for the duration of the experiment (7 weeks). A control STOP+/− male mice group (5 month old, n=3) were injected daily with saline. NAP treatment included daily (5 days a week) intranasal administrations (0.5 μg/5 μl/mouse/day) for 7-10 weeks. For intranasal administration, the peptide was dissolved in the vehicle solution (termed DD) described above. Each experimental group included 10-12 mice, 4-12 month-old; mean age 6 months).
Behavioral assessments were implemented according to the following timeline: on the first day of the third or fourth week of drug application, the open field test was conducted; on the first day of the fourth or the sixth week of drug application, the Morris water maze was carried out for 5 days including a probe test on the fifth day of testing; on third day of the fifth or tenth week of drug application, an object recognition test was conducted. All behavioral tests were performed 1 hour after the daily vehicle or drug administration.
Locomotor activity was measured in 5 consecutive sessions, 3 minutes each and the mean path length in cm of each mouse in the 3 minute sessions per the entire 15 minute period of observation in open field (80 cm diameter) was determined. Tracking was performed using the HVS IMAGE-computerized system (HVS Image, Buckinghamshire, U.K.).

STOP+/− mice [2] = assay: Elevated plus maze test; conditions: 8-month old STOP+/− mice, 300 seconds; NAP 0.5 microgram/mouse/day, clozapine 3 mg/kg/day, FIG. 15; listed as CLZ
STOP−/− mice = conditions: cited from earlier work
STOP+/− mice [3] = assay: Object recognition and discrimination test; type: in vivo, mouse; conditions: for object recognition / discrimination of novel object: Example 3, STOP+/− male mice, 3 h after first session, NAP intranasal 0.5 μg/mouse/day or clozapine 10 mg/kg IP, FIG. 9
Procedure: The NAP vehicle solution (termed DD), included the following ingredients (per milliliter): 7.5 mg of NaCl, 1.7 mg of citric acid monohydrate, 3 mg of disodium phosphate dihydrate, and 0.2 mg of benzalkonium chloride solution (50%) (Alcalay R N et al., Neurosci Lett, 361(1-3): 128-131 (2004)). NAP or vehicle solution (DD) was administered to mice hand-held in a semisupine position with nostrils facing the investigator. A pipette tip was used to administer 2.5 μl/nostril. The mouse was hand-held until the solution was totally absorbed (10 s). For clozapine experiments, clozapine (10 mg/kg) was solubilized under acidic conditions (pH ˜2.0 with HCl), and the solutions titrated back to ˜pH 7.4 with NaOH. STOP+/− male mice (5 months old, n=4) received daily doses of 10 mg/kg intraperitoneal injection (IP) of clozapine (5 days a week), for the duration of the experiment (7 weeks). A control STOP+/− male mice group (5 month old, n=3) were injected daily with saline. NAP treatment included daily (5 days a week) intranasal administrations (0.5 μg/5 μl/mouse/day) for 7-10 weeks. For intranasal administration, the peptide was dissolved in the vehicle solution (termed DD) described above. Each experimental group included 10-12 mice, 4-12 month-old; mean age 6 months). […]
The test is based on visual discrimination between two different objects in an arena of 30 cm×40 cm. […] One hour after the daily intranasal NAP treatment, or clozapine injection, each male mouse was exposed to two identical objects for 5 minutes and the time spent sniffing/touching each object was measured (first daily session). Three hours later, the mice were exposed to one familiar and one novel object for 3 minutes and the time spent sniffing/touching each object was measured again (second session, measuring visual memory). The data was analyzed using two different methods. The first method measured the time spent exploring an object, novel or familiar, and compared the two. The second method evaluated the discrimination capacity of the mice between the novel object and the familiar object using the following formula. […]

STOP+/− mice [4] = assay: Morris water maze and probe test; type: in vivo, mouse; conditions: for probe test, time in area where the platform used to be (spatial memory): Example 3, STOP+/− male mice, 5th day, NAP intranasal 0.5 μg/mouse/day or clozapine IP, FIG. 10
Procedure: as §1, with “months). […]” for “months).”
The test measures the ability of rodents to learn and remember, by spatial navigation, the place of the hidden platform in a round water maze. […] Here, mice were monitored on five consecutive swimming days. […] The time required to reach the platform during the first daily test (indicative of learning and intact reference memory) and the time required to reach the platform in the second trial [indicative of short-term (working) memory] were measured and recorded separately. […] The platform was removed from the maze and the time spent by the mice in the pool's quadrant where the platform used to be was recorded. […] Mice were released into the water and the time taken to find the platform was recorded (maximum 60 seconds). […]

STOP+/− mice [5] = assay: Social recognition test; type: in vivo; conditions: 8-month-old STOP+/− mice; NAP 0.5 microgram/mouse/day, clozapine 3 mg/kg/day, FIG. 16
Procedure: In the social recognition test, 8-month-old mice (STOP+/−) were habituated for 20 minutes in a cage and then exposed to a new juvenile mouse (1.5-month old) for one minute—followed by a 30-minute interval and another 1 minute exposure four times (familiarizing the test subject with the juvenile mouse). The fifth exposure session included a novel juvenile mouse. Time spent interacting with the juvenile mouse was recorded.

STOP+/+ mice = conditions: previous studies; cited from earlier work

CN1CCN(C2=Nc3cc(Cl)ccc3Nc3ccccc32)CC1 [clozapine, Clozapine]
hyper-locomotion (path length) in open field (STOP+/− mice [1]; Example 3, STOP+/− male mice, NAP intranasal 0.5 μg/mouse/day or clozapine 10 mg/kg IP, FIG. 8): significantly decreased the hyper-locomotion; also recorded: significant reduction | open field activity (STOP+/− mice [1]): reduced | open field activity (STOP+/− mice [1]; listed as CLZ): reduced activity | elevated plus maze, time in open and closed arms (curiosity, anxiety) (STOP+/− mice [2]): reduced curiosity and increased anxiety | deficits in behavior and hypermotility (STOP−/− mice): partially reversed | object recognition / discrimination of novel object (STOP+/− mice [3]): only showed a trend toward improvement | object recognition / discrimination of novel object (STOP+/− mice [3]; listed as Clozapine): only a trend for improvement | object recognition, discrimination capacity D2 (memory scores) (STOP+/− mice [3]; Example 4, STOP+/− mice, NAP 0.5 microgram/mouse/day, clozapine 3 mg/kg/day, versus pooled controls, FIG. 12): effective to increase memory scores | probe test, time in area where the platform used to be (spatial memory) (STOP+/− mice [4]): did not significantly affect cognitive performance | probe test, time in area where the platform used to be (spatial memory) (STOP+/− mice [4]; listed as CLZ): did not reach statistical significance | Morris water maze learning and memory (STOP+/− mice [4]; Example 4, STOP+/− mice, NAP 0.5 microgram/mouse/day, clozapine 3 mg/kg/day, FIG. 13): inhibitory effect | social recognition behavior (STOP+/− mice [5]): somewhat erratic behavior | effect of clozapine treatment in wild type mice (STOP+/+ mice): no effect
